Results from PubChem BioAssay AID540276 (National Center for Advancing Translational Sciences (NCATS), 2011).
About 5,400 (1.8%) of roughly 300,000 compounds were called active. The inconclusive results got no clear call from the source; some entries with a clear call stand among them for comparison. The call rests on the fitted dose curve; tested in HEK293 cells. Potencies of inconclusive entries are doubtful fits and often do not repeat.
Potency means the concentration at half of the fitted maximal effect.

Experiment: qHTS for inhibitors of binding or entry into cells for Marburg Virus
Details: Marburg virus pseudotyped entry inhibition, cell reporter; series mostly up to 37.8 µM
In the case of `CCCCS(=O)(=O)CC(COc1ccccc1)OC(=O)c1ccccc1` (stereo not drawn), the Potency is reported as “inactive”.
In the case of `O=C(OC(c1ccccc1)c1nccc2ccccc12)c1cccc([N+](=O)[O-])c1` (stereo not drawn), the Potency is reported as inconclusive: 29.1 µM [inhibitor, single point].
For `CNC(=O)c1cc2c(=O)n3cccc(C)c3nc2n(C(C)C)c1=N`, the Potency was inconclusive: 32.6 µM [inhibitor, single point].
With `COc1cccc(-c2ccc(NC(=O)C3CCCN(Cc4cnc(C)n4C)C3)cc2)c1` (stereo not drawn) the Potency was inconclusive: 11.2 µM [inhibitor, partial curve].
With `O=C(CSCc1ccccc1)Nc1ccccc1` the Potency was inconclusive: 31.6 µM [activator, single point].
With `CCN(CC(=O)NCc1ccc(F)cc1)C(=O)/C=C/c1ccc(S(=O)(=O)N(CC)CC)cc1` the Potency was inconclusive: 12.6 µM [inhibitor, partial curve].
In the case of `CCCCc1nnc(NC(=O)CN2C(=O)NC3(CCCCC3)C2=O)s1`, the Potency is reported as inconclusive: 3.98 µM [activator, single point].
With `COc1ccc(Cl)cc1S(=O)(=O)N1CCN(C(=O)c2n[nH]c(=O)c3ccccc23)CC1` the Potency was inconclusive: 12.6 µM [inhibitor, partial curve, poor fit].
For `COc1ccc([C@@H]2CC(=O)c3c(O)cc(O)cc3O2)cc1O`, the Potency was inconclusive: 12.6 µM [activator, single point].
In the case of `COc1ccccc1N1CCN(C(=O)CCc2nnc3n(C)c(=O)c4sccc4n23)CC1`, the Potency is reported as “inactive”.
For `O=C1CCC=C1C(O)c1ccc2c(c1)OCO2` (stereo not drawn), the Potency was inconclusive: 0.0075 µM [activator, full curve, poor fit].
In the case of `OCC(Cc1ccccc1)NCc1ccccc1C(F)(F)F` (stereo not drawn), the Potency is reported as inconclusive: 0.398 µM [activator, partial curve, poor fit].
For `O=C1CC(c2ccccc2F)c2cc3c(cc2N1)CCC3` (stereo not drawn), the Potency was inconclusive: 3.26 µM [inhibitor, partial curve, poor fit].
In the case of `Cc1ccc(N2C(=O)NC(NS(=O)(=O)c3ccc(Cl)cc3)(C(F)(F)F)C2=O)cc1C` (stereo not drawn), the Potency is reported as “inactive”.
In the case of `O=C(c1ccco1)n1nc(-c2ccc(Cl)cc2)nc1NCc1ccccc1`, the Potency is reported as inconclusive: 8.91 µM [activator, partial curve].
In the case of `CCSC1=C(C#N)C(c2ccccc2Cl)CC(=O)N1` (stereo not drawn), the Potency is reported as inconclusive: 4.47 µM [activator, single point].
With `COc1ccc(NC(=O)c2cc(S(=O)(=O)NCC3COc4ccccc4O3)ccc2F)cc1` (stereo not drawn) the Potency was “inactive”.
In the case of `COc1ccc(Nc2oc(-c3ccc(OC)cc3)nc2C#N)cc1`, the Potency is reported as “inactive”.
For `CCOc1cc(CN2CCCC(C(=O)c3cccc(C(F)(F)F)c3)C2)ccc1O` (stereo not drawn), the Potency was inconclusive: 10 µM [inhibitor, partial curve, poor fit].
With `Cc1cc(C)n(C(=O)c2ccc(NC(=O)C3COc4ccccc4O3)cc2)n1` (stereo not drawn) the Potency was “inactive”.
In the case of `COc1ccc(C(=O)Oc2ccc3ccc(=O)oc3c2)cc1`, the Potency is reported as inconclusive: 2.51 µM [activator, partial curve, poor fit].
In the case of `Cc1cc(NS(=O)(=O)c2ccc(NC(=O)c3ccccc3F)cc2)nc(C)n1`, the Potency is reported as “inactive”.
For `Cc1cc(S(=O)(=O)N(Cc2ccc(C(C)(C)C)cc2)Cc2cccs2)ccc1-n1cnnn1`, the Potency was inconclusive: 25.9 µM [inhibitor, single point].
For `CCCOc1ccc(-c2nnc(-c3ccco3)o2)cc1`, the Potency was inconclusive: 14.6 µM [inhibitor, partial curve, poor fit].
For `Cc1[nH]n(-c2cccc(Cl)c2)c(=O)c1C=NCC(C)C`, the Potency was inconclusive: 4.47 µM [activator, single point].
In the case of `COc1ccc(CN2CCNC(=O)C2CC(=O)NCCCC2CCCC2)c(C)c1C` (stereo not drawn), the Potency is reported as “inactive”.
For `O=C(N/N=C/C(Cl)=C/c1ccccc1)c1ccccn1`, the Potency was inconclusive: 5.01 µM [activator, single point].
For `Cc1c(N(C)S(=O)(=O)c2cccc(C(=O)NCC3CCCO3)c2)c(=O)n(-c2ccccc2)n1C` (stereo not drawn), the Potency was inconclusive: 1.26 µM [inhibitor, single point].
With `Cc1ccc(S(=O)(=O)N(CC(=O)NCc2ccco2)C2CCCCC2)cc1` the Potency was “inactive”.
For `COc1cc2c(c(OC)c1OC)-c1ccc(NC(=O)c3ccccc3)c(=O)cc1[C@@H](NC(C)=O)CC2`, the Potency was “inactive”.
With `C=CCN(CC=C)S(=O)(=O)c1ccc(NC(=S)NC(=O)c2ccco2)cc1` the Potency was inconclusive: 14.1 µM [inhibitor, single point].
With `CC(C)Cc1ccc(C(C)NC(=O)c2ccc(=O)[nH]c2)cc1` (stereo not drawn) the Potency was inconclusive: 11.2 µM [inhibitor, partial curve, poor fit].
In the case of `COc1ccccc1-n1c(SCC(=O)NCC2CCCO2)nc2c([nH]c3ccccc32)c1=O` (stereo not drawn), the Potency is reported as inconclusive: 1.41 µM [inhibitor, partial curve, poor fit].
For `CCOc1ccc(CCNC(=O)c2cn(C)c3ccc(S(=O)(=O)N4CCOCC4)cc3c2=O)cc1OCC`, the Potency was “inactive”.
In the case of `CCOC(=O)c1cc2sccc2n1CC(=O)OC`, the Potency is reported as “inactive”.
In the case of `COc1ccc(C)cc1-n1nnnc1SCC1CCCO1` (stereo not drawn), the Potency is reported as inconclusive: 14.1 µM [activator, partial curve, poor fit].
For `Cn1ncc([N+](=O)[O-])c1C(=O)Nc1cccc2ccccc12`, the Potency was inconclusive: 35.5 µM [inhibitor, single point].
In the case of `Cc1ccccc1-n1nc(CSc2nc3ccccc3[nH]2)c(-c2ccccc2)c1N`, the Potency is reported as inconclusive: 3.55 µM [inhibitor, partial curve, poor fit].
For `Nc1nc(Cl)cc(NCCc2ccc(O)cc2)n1`, the Potency was “inactive”.
With `COc1ccc(Oc2cn[nH]c2-c2ccc(O)cc2O)cc1` the Potency was inconclusive: 11.2 µM [inhibitor, partial curve, poor fit].
For `CC(NCC1COc2ccccc2O1)C1COc2ccccc2O1` (stereo not drawn), the Potency was “inactive”.
With `CCCCN(CCCC)Cc1ccc(C(=O)NNC(=O)Nc2ccc(Cl)cc2)o1` the Potency was inconclusive: 11.2 µM [inhibitor, partial curve, poor fit].
For `COC(=O)[C@H]1C(=O)C[C@@](C)(O)[C@@H](C(=O)OC)[C@@H]1c1ccccc1F`, the Potency was “inactive”.
For `N#Cc1nc(COc2ccc(Cl)cc2)oc1N1CCN(Cc2ccccc2)CC1`, the Potency was inconclusive: 35.5 µM [inhibitor, single point].
In the case of `CCc1sc(C(=O)Nc2cccnc2)cc1Br`, the Potency is reported as “inactive”.
In the case of `Cc1ccc(Cn2nc(C)c(NC(=O)c3cc(-c4ccc(F)cc4)on3)c2C)cc1`, the Potency is reported as “inactive”.
With `N#CCCn1nc(-c2ccccc2)cc1-n1c(C(F)(F)F)nc2ccccc21` the Potency was inconclusive: 25.1 µM [inhibitor, single point].
With `COc1cc2c(C#N)c(N3CCN(c4ccccc4OC)CC3)nc(N)c2c(N)n1` the Potency was inconclusive: 7.94 µM [inhibitor, partial curve].
For `O=C(CSc1n[nH]c(-c2ccc(Br)cc2)n1)N1CCOCC1`, the Potency was inconclusive: 10 µM [inhibitor, partial curve, poor fit].
For `O=C(/C=C/c1ccccc1Cl)NCCc1ccccc1`, the Potency was inconclusive: 6.51 µM [activator, single point].
In the case of `Cc1ccc(C(=O)C(C)OC(=O)Cc2n[nH]c(=O)c3ccccc23)cc1` (stereo not drawn), the Potency is reported as inconclusive: 6.31 µM [inhibitor, single point].
In the case of `Cc1cccc(-n2c(-c3ccco3)nc3c(cnn3-c3ccccc3C)c2=O)c1`, the Potency is reported as inconclusive: 1.26 µM [inhibitor, full curve, poor fit].
With `O=C(NC1CCc2ccccc21)c1cc(COc2ccc(F)cc2F)on1` (stereo not drawn) the Potency was inconclusive: 6.31 µM [inhibitor, single point].
For `CCC(NS(=O)(=O)c1ccc(OC)cc1)C(=O)NCCC1=CCCCC1` (stereo not drawn), the Potency was “inactive”.
For `Cc1ccc(C)c(N2CCN(C(=O)Cc3ccc(-n4c(=O)[nH]c5ccsc5c4=O)cc3)CC2)c1`, the Potency was inconclusive: 5.01 µM [inhibitor, partial curve, poor fit].
For `Cc1cc(OCC(=O)NC(C)C)ccc1Cl`, the Potency was inconclusive: 31.6 µM [activator, single point].
For `C/C(=C\C(=O)c1ccccc1)Nc1ccc2c(c1)OCO2`, the Potency was “inactive”.
For `CSc1cccc(NC(=O)c2c(Cl)cnn2C)c1`, the Potency was “inactive”.
With `Cc1ccc(S(=O)(=O)N2CCCOC2CNC(=O)C(=O)NCCC2=CCCCC2)cc1` (stereo not drawn) the Potency was inconclusive: 7.08 µM [inhibitor, partial curve, poor fit].
With `Cc1ccc(Sc2c(C)nn(C(=O)COc3ccccc3)c2C)cc1` the Potency was “inactive”.
In the case of `Cc1ccc2c(CN(C)Cc3ccc(Cl)cc3)cc(=O)oc2c1`, the Potency is reported as inconclusive: 35.5 µM [inhibitor, single point].
In the case of `CCOc1ccc(C(C)=O)cc1COc1cccnc1[N+](=O)[O-]`, the Potency is reported as inconclusive: 0.794 µM [inhibitor, partial curve, poor fit].
With `Cn1c2ccccc2c2cnn(CC(=O)NCc3ccc(Cl)cc3)c(=O)c21` the Potency was inconclusive: 6.31 µM [inhibitor, partial curve, poor fit].
For `CC(=O)Nc1ccccc1OCc1cc(=O)n2c3c(sc2n1)CCCC3`, the Potency was “inactive”.
For `CCn1c(=O)n(CC)c2cc(N3CCCC3)c(NC(=O)c3cccc(C)c3)cc21`, the Potency was inconclusive: 6.31 µM [inhibitor, full curve].
With `Cc1ccc(O)c(CN2CCC3CCC(C3)C2)c1` (stereo not drawn) the Potency was inconclusive: 17.8 µM [activator, single point].
In the case of `CC1CN=C(N(C(=S)Nc2ccccc2)c2cccc(C(F)(F)F)c2)S1` (stereo not drawn), the Potency is reported as inconclusive: 2.24 µM [activator, partial curve, poor fit].
